Data as given in the supplement of paper PMC10849652.
This is one part of the list. Residues, ends and D or L forms follow the SMILES beside them. *: point of attachment. Cbz = O=C(OCc1ccccc1)*

Amino acid sequences for entries named in this document (tags omitted). A change or cut given only in a name is not applied to a line headed by its entry.
UniProt Q9UMX0, whole entry, looked up: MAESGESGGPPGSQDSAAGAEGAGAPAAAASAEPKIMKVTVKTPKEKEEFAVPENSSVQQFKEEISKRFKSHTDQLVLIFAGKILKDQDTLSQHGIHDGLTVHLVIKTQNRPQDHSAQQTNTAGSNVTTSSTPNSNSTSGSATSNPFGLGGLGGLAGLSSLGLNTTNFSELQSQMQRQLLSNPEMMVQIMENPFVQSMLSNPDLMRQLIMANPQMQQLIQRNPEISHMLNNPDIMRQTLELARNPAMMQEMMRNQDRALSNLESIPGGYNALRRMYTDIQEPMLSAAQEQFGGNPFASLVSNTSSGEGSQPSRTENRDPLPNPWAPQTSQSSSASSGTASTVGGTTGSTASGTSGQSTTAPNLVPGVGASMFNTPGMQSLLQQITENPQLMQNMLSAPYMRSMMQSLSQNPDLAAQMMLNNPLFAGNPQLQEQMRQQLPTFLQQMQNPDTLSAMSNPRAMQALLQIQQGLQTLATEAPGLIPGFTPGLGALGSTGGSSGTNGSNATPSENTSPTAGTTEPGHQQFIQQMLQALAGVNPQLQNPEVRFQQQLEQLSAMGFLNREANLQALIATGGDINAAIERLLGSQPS
UniProt Q6UW78: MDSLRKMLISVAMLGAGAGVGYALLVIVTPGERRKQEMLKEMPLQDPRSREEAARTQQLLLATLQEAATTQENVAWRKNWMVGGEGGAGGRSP
UniProt C9J7I0: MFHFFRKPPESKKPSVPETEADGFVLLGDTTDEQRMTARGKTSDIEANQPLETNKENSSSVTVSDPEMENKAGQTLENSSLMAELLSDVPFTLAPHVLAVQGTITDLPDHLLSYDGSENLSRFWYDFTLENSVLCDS
UniProt Q9Y5J1: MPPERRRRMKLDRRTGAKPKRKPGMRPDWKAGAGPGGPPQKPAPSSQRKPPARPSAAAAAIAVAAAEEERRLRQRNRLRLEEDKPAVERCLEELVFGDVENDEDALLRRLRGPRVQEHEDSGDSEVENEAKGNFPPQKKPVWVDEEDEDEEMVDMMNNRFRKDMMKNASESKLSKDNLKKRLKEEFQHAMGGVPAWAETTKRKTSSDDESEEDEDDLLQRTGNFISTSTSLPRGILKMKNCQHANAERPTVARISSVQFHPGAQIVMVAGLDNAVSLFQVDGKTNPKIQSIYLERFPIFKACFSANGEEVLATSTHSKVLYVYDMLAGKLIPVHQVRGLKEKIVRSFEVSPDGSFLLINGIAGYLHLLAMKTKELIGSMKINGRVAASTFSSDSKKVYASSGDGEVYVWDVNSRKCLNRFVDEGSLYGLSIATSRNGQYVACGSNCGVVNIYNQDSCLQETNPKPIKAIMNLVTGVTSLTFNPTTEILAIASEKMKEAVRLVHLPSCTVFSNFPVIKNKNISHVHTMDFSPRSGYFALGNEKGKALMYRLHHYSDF
UniProt Q96JH7: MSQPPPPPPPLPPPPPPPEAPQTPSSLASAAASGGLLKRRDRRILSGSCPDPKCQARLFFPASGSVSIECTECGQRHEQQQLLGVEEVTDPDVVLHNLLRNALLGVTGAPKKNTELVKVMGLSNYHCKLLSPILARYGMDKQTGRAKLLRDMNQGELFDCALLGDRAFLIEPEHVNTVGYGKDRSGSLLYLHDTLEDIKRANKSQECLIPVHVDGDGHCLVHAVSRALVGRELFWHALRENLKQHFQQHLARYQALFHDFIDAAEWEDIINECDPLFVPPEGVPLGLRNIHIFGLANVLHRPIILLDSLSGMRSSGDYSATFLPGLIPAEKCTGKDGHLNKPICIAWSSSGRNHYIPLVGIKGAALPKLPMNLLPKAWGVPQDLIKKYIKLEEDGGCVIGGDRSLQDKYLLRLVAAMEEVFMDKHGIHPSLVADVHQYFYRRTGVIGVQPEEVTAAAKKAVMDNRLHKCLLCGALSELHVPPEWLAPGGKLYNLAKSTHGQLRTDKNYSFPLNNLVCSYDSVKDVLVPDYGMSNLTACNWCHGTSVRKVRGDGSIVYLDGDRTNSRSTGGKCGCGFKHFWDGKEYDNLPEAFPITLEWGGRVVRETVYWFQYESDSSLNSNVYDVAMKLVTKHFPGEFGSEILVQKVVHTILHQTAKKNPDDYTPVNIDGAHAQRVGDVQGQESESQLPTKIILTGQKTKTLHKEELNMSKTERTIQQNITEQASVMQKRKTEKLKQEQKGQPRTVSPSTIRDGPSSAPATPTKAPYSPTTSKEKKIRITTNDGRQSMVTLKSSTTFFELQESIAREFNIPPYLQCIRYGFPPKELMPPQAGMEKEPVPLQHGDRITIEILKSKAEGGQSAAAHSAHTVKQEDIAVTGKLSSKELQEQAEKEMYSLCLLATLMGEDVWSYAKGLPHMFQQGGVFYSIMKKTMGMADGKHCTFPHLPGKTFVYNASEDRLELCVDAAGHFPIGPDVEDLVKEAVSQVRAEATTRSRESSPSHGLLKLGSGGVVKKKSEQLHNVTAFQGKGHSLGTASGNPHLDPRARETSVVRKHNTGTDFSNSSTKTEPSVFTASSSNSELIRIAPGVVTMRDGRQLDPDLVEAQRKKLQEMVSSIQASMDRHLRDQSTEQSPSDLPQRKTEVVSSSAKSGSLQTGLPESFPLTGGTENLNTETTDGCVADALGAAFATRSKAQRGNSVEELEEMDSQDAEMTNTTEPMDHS
UniProt Q6ZU65, whole entry, looked up: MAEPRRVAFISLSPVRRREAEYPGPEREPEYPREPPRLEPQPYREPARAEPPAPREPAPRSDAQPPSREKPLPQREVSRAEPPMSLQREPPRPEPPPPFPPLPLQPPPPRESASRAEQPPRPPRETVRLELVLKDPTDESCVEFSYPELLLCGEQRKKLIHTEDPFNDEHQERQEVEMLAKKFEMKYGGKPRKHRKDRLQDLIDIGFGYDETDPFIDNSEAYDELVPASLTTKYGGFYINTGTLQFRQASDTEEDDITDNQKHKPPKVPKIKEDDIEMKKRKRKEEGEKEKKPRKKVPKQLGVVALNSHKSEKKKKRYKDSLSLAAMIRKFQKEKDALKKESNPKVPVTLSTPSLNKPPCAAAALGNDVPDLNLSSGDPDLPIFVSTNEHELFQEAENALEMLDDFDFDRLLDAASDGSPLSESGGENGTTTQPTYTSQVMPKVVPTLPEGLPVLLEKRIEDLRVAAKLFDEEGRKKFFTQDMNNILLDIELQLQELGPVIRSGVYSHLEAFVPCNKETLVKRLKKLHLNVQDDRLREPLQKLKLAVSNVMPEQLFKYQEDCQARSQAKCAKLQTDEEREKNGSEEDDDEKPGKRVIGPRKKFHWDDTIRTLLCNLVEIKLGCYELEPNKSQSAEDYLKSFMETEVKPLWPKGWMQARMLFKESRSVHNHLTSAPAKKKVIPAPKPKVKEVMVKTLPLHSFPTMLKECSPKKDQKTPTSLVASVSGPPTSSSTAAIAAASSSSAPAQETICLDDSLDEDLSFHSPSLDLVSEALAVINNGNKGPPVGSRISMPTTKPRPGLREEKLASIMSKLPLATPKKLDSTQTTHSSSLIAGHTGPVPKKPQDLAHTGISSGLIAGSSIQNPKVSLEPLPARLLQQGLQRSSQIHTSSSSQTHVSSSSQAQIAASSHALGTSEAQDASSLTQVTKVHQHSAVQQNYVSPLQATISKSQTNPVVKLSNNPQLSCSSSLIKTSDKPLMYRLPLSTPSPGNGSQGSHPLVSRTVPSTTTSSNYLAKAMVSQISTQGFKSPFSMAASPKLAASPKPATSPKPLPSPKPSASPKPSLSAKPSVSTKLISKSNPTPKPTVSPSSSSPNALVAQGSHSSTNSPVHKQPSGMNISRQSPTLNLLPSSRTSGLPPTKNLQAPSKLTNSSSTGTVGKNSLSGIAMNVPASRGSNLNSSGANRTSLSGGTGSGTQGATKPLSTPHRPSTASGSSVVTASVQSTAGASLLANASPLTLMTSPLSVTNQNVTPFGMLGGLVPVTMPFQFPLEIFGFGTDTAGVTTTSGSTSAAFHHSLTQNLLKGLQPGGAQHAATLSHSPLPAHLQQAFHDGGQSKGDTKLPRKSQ
UniProt Q68DE3: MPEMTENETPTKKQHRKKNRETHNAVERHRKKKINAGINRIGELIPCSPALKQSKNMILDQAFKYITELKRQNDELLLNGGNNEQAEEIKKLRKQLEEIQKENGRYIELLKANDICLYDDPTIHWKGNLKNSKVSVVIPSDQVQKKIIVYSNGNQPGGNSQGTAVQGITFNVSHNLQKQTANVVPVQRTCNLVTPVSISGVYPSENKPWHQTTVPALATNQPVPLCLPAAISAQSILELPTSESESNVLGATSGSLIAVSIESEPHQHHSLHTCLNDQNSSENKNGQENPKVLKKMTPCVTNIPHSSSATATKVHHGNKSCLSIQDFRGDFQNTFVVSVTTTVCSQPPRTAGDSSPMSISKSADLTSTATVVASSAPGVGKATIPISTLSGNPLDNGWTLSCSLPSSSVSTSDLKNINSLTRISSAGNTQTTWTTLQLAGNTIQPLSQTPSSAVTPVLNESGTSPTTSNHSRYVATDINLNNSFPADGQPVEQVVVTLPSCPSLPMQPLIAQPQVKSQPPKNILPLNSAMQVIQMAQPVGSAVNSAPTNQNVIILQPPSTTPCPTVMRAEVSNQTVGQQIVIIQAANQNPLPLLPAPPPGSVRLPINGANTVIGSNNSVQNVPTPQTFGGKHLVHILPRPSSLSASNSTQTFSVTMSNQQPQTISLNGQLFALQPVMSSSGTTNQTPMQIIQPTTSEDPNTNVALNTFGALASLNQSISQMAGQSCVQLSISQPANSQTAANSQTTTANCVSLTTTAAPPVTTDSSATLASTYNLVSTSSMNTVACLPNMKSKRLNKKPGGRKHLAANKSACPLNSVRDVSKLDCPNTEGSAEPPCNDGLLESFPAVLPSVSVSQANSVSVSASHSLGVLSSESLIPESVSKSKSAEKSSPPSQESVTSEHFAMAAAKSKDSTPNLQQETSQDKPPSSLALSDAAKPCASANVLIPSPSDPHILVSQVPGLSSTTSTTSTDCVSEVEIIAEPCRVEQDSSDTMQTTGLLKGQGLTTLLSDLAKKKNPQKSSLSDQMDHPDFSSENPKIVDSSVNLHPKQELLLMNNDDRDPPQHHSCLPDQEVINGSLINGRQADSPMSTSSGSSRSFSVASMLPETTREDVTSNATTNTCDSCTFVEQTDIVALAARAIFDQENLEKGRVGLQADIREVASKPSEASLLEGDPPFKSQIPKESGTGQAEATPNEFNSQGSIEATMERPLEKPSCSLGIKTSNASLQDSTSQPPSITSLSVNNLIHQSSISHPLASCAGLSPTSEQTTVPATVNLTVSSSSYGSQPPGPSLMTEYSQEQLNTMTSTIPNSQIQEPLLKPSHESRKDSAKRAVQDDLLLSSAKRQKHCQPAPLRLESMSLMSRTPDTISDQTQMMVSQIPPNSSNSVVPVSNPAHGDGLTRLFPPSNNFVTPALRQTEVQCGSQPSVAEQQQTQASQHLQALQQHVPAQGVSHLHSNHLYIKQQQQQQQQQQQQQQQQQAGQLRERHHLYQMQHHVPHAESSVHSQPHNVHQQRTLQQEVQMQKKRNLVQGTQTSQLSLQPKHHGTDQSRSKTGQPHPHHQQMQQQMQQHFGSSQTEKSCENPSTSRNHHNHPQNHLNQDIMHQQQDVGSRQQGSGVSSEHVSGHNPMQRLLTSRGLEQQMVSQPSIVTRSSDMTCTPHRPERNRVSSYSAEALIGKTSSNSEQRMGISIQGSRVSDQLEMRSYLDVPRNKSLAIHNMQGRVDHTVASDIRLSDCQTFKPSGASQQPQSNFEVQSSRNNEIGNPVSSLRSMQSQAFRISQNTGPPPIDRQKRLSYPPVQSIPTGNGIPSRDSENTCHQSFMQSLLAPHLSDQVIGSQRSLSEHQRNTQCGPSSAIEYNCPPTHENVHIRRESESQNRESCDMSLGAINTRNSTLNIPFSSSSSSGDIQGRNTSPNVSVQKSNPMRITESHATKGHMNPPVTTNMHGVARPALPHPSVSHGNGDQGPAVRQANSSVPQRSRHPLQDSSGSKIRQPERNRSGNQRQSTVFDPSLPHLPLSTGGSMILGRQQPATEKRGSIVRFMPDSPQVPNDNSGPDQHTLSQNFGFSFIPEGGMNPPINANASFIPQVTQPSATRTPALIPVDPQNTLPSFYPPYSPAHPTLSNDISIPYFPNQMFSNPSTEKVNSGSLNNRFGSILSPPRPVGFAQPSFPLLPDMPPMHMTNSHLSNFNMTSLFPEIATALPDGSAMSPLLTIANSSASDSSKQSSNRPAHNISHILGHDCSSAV
UniProt P62068, whole entry, looked up: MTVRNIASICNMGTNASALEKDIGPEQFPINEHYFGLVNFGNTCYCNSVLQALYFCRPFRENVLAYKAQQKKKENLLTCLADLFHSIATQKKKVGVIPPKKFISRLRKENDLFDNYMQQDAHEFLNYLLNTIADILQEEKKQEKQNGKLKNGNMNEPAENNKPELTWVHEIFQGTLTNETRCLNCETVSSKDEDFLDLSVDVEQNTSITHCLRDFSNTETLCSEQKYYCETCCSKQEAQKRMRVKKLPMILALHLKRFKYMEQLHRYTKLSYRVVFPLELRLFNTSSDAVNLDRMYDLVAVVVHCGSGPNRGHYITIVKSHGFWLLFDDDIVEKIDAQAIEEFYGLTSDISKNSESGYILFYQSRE

Columns and labels:
Assay in all cases: log2 fold change, soluble protein after heating vs DMSO (PISA); higher = thermal stabilisation; K562 cells, 10 uM, 30 min; active = over 0.2 and 3.5 SD of the protein, either way, in both replicates (recomputed)
[1] = compound: C/C(=N\NC(=O)C1=CC(=CC=C1)S(=O)(=O)N2CCOCC2)/C3=C(C=CC(=C3)Cl)O
Summary of the method: (§1)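 Quantification of soluble protein used TMTpro 16plex LC-MS/MS, with channel sums equalised. Samples were the supernatant after 21,000xg for 90 min of pooled aliquots from K562 cells (2×10^6 cells/mL) treated with 10 μM compound for 30 min, heated for 3 min over 48°C-58°C, and extracted in PBS with 0.5% NP-40 at 4°C. Values, from duplicates, describe thermal stability against control samples on a log2 fold-change scale.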

[2] = compound: C1=CC2=C(C=CC(=C2)/C=C\3/C(=O)NC(=NCC4=CC=CS4)S3)N=C1
Summary of the method: as §1

[3] = compound: C1=CC=C(C=C1)C2=NC(=C(N2)C3=CC=NC=C3)C4=CC(=C(C=C4)Cl)O
Summary of the method: as §1

[4] = compound: C1=CC=C2C(=C1)C3=NNC4=CC=CC(=C43)C2=O
Summary of the method: as §1

[5] = compound: C1CCN(C1)C(=O)NC2=CC=CC(=C2)NC3=NC=C(C(=N3)NCCC4=CN=CN4)Br
Summary of the method: as §1

[6] = compound: C1CN(CCC1(CC2=CC=C(C=C2)Cl)N)C3=NC=NC4=C3C=CN4
Summary of the method: as §1

[7] = compound: CC(=O)c1cnc2ccc(-c3cc(Cl)c(O)c(Cl)c3)nc2c1N[C@H]1CC[C@H](CN(C)C)CC1
Summary of the method: as §1

ralimetinib = compound: CC(C)(C)Cn1c(N)nc2ccc(-c3[nH]c(C(C)(C)C)nc3-c3ccc(F)cc3)nc21 [ralimetinib]
Summary of the method: as §1

[8] = compound: CC(C)C[C@@H](C=O)NC(=O)[C@H](CC(C)C)NC(=O)[C@H](CC(C)C)NC(=O)OCc1ccccc1
Summary of the method: as §1

[9] = compound: CC1=C(C2=C(C=C1)C(=O)C3=CC=CC=C3N2CCCN)C
Summary of the method: as §1

[10] = compound: C1=CC(=C(C=C1Cl)C2=NC3=NC=CN=C3C(=N2)NC4=CC=NC=C4)F
Summary of the method: as §1

[11] = compound: CC(C)(O)CC(=O)NCCn1ccc2ncnc(Nc3ccc(Oc4cccc(C(F)(F)F)c4)c(Cl)c3)c21
Summary of the method: as §1

[12] = compound: C1=CC2=NC=CN=C2C=C1/C=C/3\C(=O)NC(=O)S3
Summary of the method: as §1

IRAK-1-4 Inhibitor I = compound: C1COCCN1CCN2C3=CC=CC=C3N=C2NC(=O)C4=CC(=CC=C4)[N+](=O)[O-] [IRAK-1-4 Inhibitor I]
Summary of the method: as §1

ibrutinib = compound: C=CC(=O)N1CCC[C@@H](n2nc(-c3ccc(Oc4ccccc4)cc3)c3c(N)ncnc32)C1 [ibrutinib]
Summary of the method: as §1

pinometostat = compound: CC(C)N(C[C@H]1O[C@@H](n2cnc3c(N)ncnc32)[C@H](O)[C@@H]1O)[C@H]1C[C@@H](CCc2nc3cc(C(C)(C)C)ccc3[nH]2)C1 [pinometostat]
Summary of the method: as §1

[13] = compound: CC1=C(C(CC(=O)N1)C2=CC=C(C=C2)C(F)(F)F)C(=O)NC3=C(C=C4C(=C3)C=NN4)F
Summary of the method: as §1

erlotinib = compound: C#Cc1cccc(Nc2ncnc3cc(OCCOC)c(OCCOC)cc23)c1 [erlotinib]
Summary of the method: as §1

[14] = compound: C1=CC(=CC=C1C2=NC3=C(N2)C=C(C=C3)C(=O)N)OC4=CC=C(C=C4)Cl
Summary of the method: as §1

[15] = compound: CC(C)C1=C2N=C(C=C(N2N=C1)NCC3=CC=CC=C3)NCCCCCCN
Summary of the method: as §1

Measured: log2 fold change

USP12 (UniProt O75317)
inactive: [1] 0.113 | [2] 0.003 | [3] -0.059 | [4] 0.097 | [5] -0.278 | [6] 0.048 | [7] -0.215 | ralimetinib 0.029 | [8] 0.004 | [9] 0.182

USP11 (UniProt P51784)
inactive: [10] -0.555 | [3] -0.02 | ralimetinib 0.167 | [11] 0.285 | [8] -0.032

UGP2 (UniProt C9JWG0)
inactive: [1] -0.29 | [2] 0.209 | [12] 0.019 | [4] 0.08 | IRAK-1-4 Inhibitor I 0.141 | ibrutinib 0.015 | [7] -0.181 | pinometostat 0.037 | [13] 0.174

UQCR11 (UniProt O14957)
inactive: erlotinib -0.154 | [1] 0.126 | [14] 0.017 | [2] 0.133 | [3] 0.028 | [4] 0.062 | IRAK-1-4 Inhibitor I 0.14 | [7] -0.102 | ralimetinib -0.081 | [15] 0.029 | [8] -0.101 | pinometostat 0.006 | [13] -0.222

UBQLN1 isoform 2 (UniProt Q9UMX0)
inactive: erlotinib -0.25 | [14] -0.216 | [15] 0.166

URB2 (UniProt Q14146)
inactive: erlotinib -0.095 | [1] -0.13 | [14] 0.021 | [2] 0.124 | [12] 0.045 | [4] -0.215 | IRAK-1-4 Inhibitor I 0.075 | ibrutinib -0.229 | [7] 0.161 | [15] -0.391 | pinometostat 0.13 | [13] 0.075

UQCC3 (UniProt Q6UW78)
inactive: [10] 0.288 | [12] -0.061 | ibrutinib -0.003 | [11] -0.079 | [13] 0.078

UNC5B (UniProt Q8IZJ1)
inactive: [10] -0.442 | [5] 0.161 | [6] -0.127 | [11] 0.019 | [9] 0.243

UMAD1 (UniProt C9J7I0)
inactive: erlotinib 0.115 | [14] 0.181 | [12] 0.077 | [3] 0.192 | [5] -0.048 | [6] -0.365 | IRAK-1-4 Inhibitor I 0.067 | ibrutinib 0.058 | ralimetinib -0.116 | [15] -0.047 | [8] -0.249 | pinometostat -0.115 | [13] 0.047 | [9] 0.334

USB1 (UniProt Q9BQ65)
inactive: erlotinib 0.122 | [14] -0.09 | [5] -0.289 | [6] 0.054 | [15] -0.061 | [9] -0.103

UTP18 (UniProt Q9Y5J1)
inactive: erlotinib -0.24 | [10] -0.31 | [14] 0.051 | [12] -0.031 | [3] 0.003 | IRAK-1-4 Inhibitor I -0.11 | ibrutinib -0.009 | ralimetinib 0.189 | [11] 0.062 | [15] 0.15 | [8] 0.11 | pinometostat 0.295 | [13] -0.077

VCPIP1 (UniProt Q96JH7)
inactive: erlotinib 0.101 | [10] -0.2 | [14] -0.105 | [11] 0.21 | [15] -0.752

UBN2 (UniProt Q6ZU65)
inactive: IRAK-1-4 Inhibitor I 0.03 | pinometostat -0.137 | [13] -0.034

UNC119B (UniProt A6NIH7)
inactive: erlotinib 0 | [1] 0.124 | [14] 0.316 | [2] 0.031 | [12] 0.001 | [4] 0.005 | [5] -0.012 | IRAK-1-4 Inhibitor I 0.113 | ibrutinib 0.08 | [7] 0.028 | ralimetinib 0.014 | [15] 0.272 | [8] 0.088 | pinometostat 0.126 | [9] -0.047
active: [3] 0.472 | [6] 0.454

USF3 (UniProt Q68DE3)
inactive: [10] -0.149 | [12] -0.037 | [3] -0.002 | IRAK-1-4 Inhibitor I 0.115 | ibrutinib 0.075 | ralimetinib 0.263 | [11] 0.078 | [8] -0.043 | pinometostat 0.153

ULBP2 (UniProt Q9BZM5)
inactive: [10] -0.301 | [3] 0.017 | [5] 0.095 | [6] 0.087 | ralimetinib -0.003 | [11] 0.224 | [8] 0.116 | [13] -0.019 | [9] 0.038

UBP1 (UniProt Q9NZI7)
inactive: [10] -0.391 | [12] 0.03 | [3] -0.155 | [5] 0.055 | [6] 0.042 | IRAK-1-4 Inhibitor I 0.206 | ibrutinib 0.056 | ralimetinib 0.084 | [11] 0.147 | [8] 0.079 | pinometostat 0.042 | [13] 0.01 | [9] 0.005

UTP14C (UniProt Q5TAP6)
inactive: erlotinib 0.099 | [10] 0.024 | [14] -0.103 | IRAK-1-4 Inhibitor I 0.002 | [11] -0.14 | [15] 0.028 | pinometostat -0.057

USP46 (UniProt P62068)
inactive: erlotinib 0.205 | [10] -0.175 | [14] 0 | IRAK-1-4 Inhibitor I -0.066 | [11] -0.039 | [15] -0.052 | pinometostat 0.062

Two neighbouring records from above, for reference:
USF3 (UniProt Q68DE3)
inactive: [10] -0.149 | [12] -0.037 | [3] -0.002 | IRAK-1-4 Inhibitor I 0.115 | ibrutinib 0.075 | ralimetinib 0.263 | [11] 0.078 | [8] -0.043 | pinometostat 0.153

ULBP2 (UniProt Q9BZM5)
inactive: [10] -0.301 | [3] 0.017 | [5] 0.095 | [6] 0.087 | ralimetinib -0.003 | [11] 0.224 | [8] 0.116 | [13] -0.019 | [9] 0.038

Following part:

USP48 (UniProt Q86UV5)
inactive: erlotinib 0.228 | [14] -0.112 | [12] 0.007 | ibrutinib -0.07 | [15] -0.246

UPP1 (UniProt Q16831)
inactive: [5] -0.239 | [6] -0.089 | IRAK-1-4 Inhibitor I -0.562 | pinometostat 0.191 | [9] 0.005
